Experimental data from article PMC4933460.
No constants are given. Whether binding was seen depends on the method and setting. Some binding calls cover weakened binding; strength is not graded here. Each block holds one substance with its values, some of them ahead of it.

Sequences of proteins named here, by UniProt entry; tags and fusion partners are left off. A change or cut given only in a name is not applied to a line headed by its entry. A line that says so, or that is headed by a name, gives the form on record, which may keep a tag or linker.
UniProt P18075: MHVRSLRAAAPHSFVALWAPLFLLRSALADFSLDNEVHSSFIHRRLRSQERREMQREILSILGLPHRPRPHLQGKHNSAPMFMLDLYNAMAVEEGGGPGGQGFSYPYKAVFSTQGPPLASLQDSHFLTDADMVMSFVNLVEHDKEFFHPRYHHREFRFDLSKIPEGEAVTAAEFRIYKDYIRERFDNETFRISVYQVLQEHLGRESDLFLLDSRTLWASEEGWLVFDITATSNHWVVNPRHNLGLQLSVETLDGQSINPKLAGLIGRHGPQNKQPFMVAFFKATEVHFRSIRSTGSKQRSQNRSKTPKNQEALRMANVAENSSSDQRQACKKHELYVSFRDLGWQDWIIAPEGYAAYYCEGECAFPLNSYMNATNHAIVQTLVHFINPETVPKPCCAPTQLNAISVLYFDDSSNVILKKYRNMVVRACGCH
BMP-7 PD (30-292) H66A/R67A (P18075, form named): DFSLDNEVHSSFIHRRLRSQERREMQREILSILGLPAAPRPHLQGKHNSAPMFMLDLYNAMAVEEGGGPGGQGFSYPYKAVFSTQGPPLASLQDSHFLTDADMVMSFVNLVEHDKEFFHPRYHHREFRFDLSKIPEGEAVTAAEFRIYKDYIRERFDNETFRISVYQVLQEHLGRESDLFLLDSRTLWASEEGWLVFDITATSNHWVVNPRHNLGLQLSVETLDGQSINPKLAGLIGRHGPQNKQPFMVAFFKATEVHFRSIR
BMP-7 PD (30-292) P65A (P18075, form named): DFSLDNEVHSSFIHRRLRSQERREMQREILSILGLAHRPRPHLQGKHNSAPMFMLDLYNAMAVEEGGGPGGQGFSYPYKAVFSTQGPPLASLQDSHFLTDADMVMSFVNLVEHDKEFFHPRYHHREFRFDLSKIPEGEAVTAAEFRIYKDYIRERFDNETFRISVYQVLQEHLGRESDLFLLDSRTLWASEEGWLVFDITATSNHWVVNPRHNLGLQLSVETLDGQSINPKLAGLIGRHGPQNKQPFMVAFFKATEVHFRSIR
BMP-7 PD (30-292) P65A/H66A/R67A/P68A (P18075, form named): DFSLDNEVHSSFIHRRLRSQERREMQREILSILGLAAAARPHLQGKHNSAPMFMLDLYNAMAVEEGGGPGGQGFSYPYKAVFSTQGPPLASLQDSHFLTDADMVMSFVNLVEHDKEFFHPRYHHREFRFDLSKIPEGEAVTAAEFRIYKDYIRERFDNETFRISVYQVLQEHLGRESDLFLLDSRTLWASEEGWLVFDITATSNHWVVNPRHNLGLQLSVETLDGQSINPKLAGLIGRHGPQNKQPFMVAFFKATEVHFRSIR

Tests used:
[1] = biological target: BMP-7 PD truncation variant 48-292 (UniProt P18075); assay: SPR; PD/PD interaction: 500-800 RU of full-length PD (30-292) or truncated variants (48-292, 55-292) immobilised, 0-320 nM PD variants injected in HBS-EP with 1 M urea; apparent KD; both purified
[2] = biological target: BMP-7 PD truncation variant 55-292 (UniProt P18075); assay: as above
[3] = biological target: BMP-7 growth factor (GF) dimer (UniProt P18075); assay: SPR; BIAcore 2000; BMP-7 GF covalently coupled to a CM5 chip (500 RU), PD variants flown over in HBS-EP pH 7.4 with 1 M urea; 1:1 model with mass transfer; apparent KD = kd/ka; both purified
[4] = biological target: BMP-7 prodomain, full-length PD (residues 30-292), E. coli (UniProt P18075); assay: SPR; PD/PD interaction: 500-800 RU of full-length PD (30-292) or truncated variants (48-292, 55-292) immobilised, 0-320 nM PD variants injected in HBS-EP with 1 M urea; apparent KD; both purified
[5] = biological target: BMP-7 PD truncation variant 74-292 (UniProt P18075); assay: ELISA; BMP-7 PD variants coated at 0.1 μM on MaxiSorp 96-well plates, BMP-7 GF incubated in solution, bound GF detected with a polyclonal anti-BMP-7 GF antibody; both purified
[6] = biological target: BMP-7 PD (30-292) H66A/R67A (UniProt P18075); assay: ELISA; sandwich ELISA of reconstitution in solution: PD variants dialysed with the GF in TBS with 1 M urea overnight, captured by coated monoclonal anti-His6 antibody (C-terminal His6 of the PD), GF detected with an anti-GF antibody; both purified
BMP-7 PD (30-292) P65A = BMP-7 PD (30-292) P65A (UniProt P18075); assay: as above
[7] = biological target: BMP-7 PD (30-292) P65A/H66A/R67A/P68A (UniProt P18075); assay: as above
[8] = biological target: BMP-7 growth factor (GF) dimer (UniProt P18075); assay: velocity sedimentation in sucrose gradients; 10 μg BMP-7 complex dialysed against TBS with 4 M urea, 5-20% sucrose gradient, 28 fractions, Western blots for PD and GF; both purified
[9] = biological target: BMP-7 prodomain of the HEK293 EBNA cell-expressed BMP-7 complex (UniProt P18075); assay: as above
[10] = biological target: BMP-7 prodomain-growth factor complex (UniProt P18075); assay: negative-stain TEM, single particle classification; BMP-7 complex dialysed together with the fibrillin-1 N-terminal fragment at a 1:4 molar ratio, total protein 10-20 μg/ml, negatively stained; both purified

Substance: BMP-7 PD truncation variant 48-292 (from UniProt P18075 48-292) (domain or fragment)
binding [1]: no binding (tested: 0–320 nM)

Substance: BMP-7 PD truncation variant 55-292 (from UniProt P18075 55-292) (domain or fragment)
binding [2]: no binding (tested: 0–320 nM)

Substance: BMP-7 PD truncation variant 67-292 (from UniProt P18075 67-292) (domain or fragment)
binding [3]: no binding

Substance: BMP-7 PD truncation variant 69-292 (from UniProt P18075 69-292) (domain or fragment)
binding [3]: no binding

Substance: BMP-7 growth factor (GF) dimer (from UniProt P18075 293-431) (ligand)
binding [5]: no binding
binding [6]: no binding
binding (BMP-7 PD (30-292) P65A): no binding
binding [7]: no binding

Substance: BMP-7 prodomain of the HEK293 EBNA cell-expressed BMP-7 complex (from UniProt P18075 30-292) (domain or fragment)
binding [8]: no binding (condition: in 4 M urea)
binding [9]: no binding (condition: in 4 M urea)

Continued, values first:

binding [3]: no binding
binding [4]: no binding (tested: 0–320 nM)
Substance: BMP-7 PD truncation variant 74-292 (from UniProt P18075 74-292) (domain or fragment)

binding [3]: no binding
binding [4]: no binding (tested: 0–320 nM)
Substance: BMP-7 PD truncation variant 116-292 (from UniProt P18075 116-292) (domain or fragment)

binding [3]: no binding
binding [4]: no binding (tested: 0–320 nM)
Substance: BMP-7 PD variant 185-292 (from UniProt P18075 185-292) (domain or fragment)

binding [10]: binds
Substance: fibrillin-1 unique N-terminal domain (FUN) with the first EGF-like domain (Ser19-His118) fused with cbEGF19-22 (Asp1363-Val1527) (from UniProt P35555 19-118; P35555 1363-1527) (domain or fragment)
